# Results from the supplement of paper PMC3334620.
# Whole data set: some 33,000 sequences, median “E-score (-0.5 to 0.5)” near -8e-05, cut for the highest 2% near 0.23. Some of the results follow.
# Biological target: T1, Nrg2 (UniProt P38082)
# T1 sequence: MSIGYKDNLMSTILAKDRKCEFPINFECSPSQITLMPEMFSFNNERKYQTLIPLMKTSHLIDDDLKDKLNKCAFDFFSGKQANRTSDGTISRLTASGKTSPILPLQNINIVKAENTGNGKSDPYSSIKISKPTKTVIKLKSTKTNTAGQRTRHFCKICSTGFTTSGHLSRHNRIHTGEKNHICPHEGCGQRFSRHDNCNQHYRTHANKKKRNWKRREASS
# Assay: PBM E-score (8-mer binding enrichment) (E-score (-0.5 to 0.5)); higher = stronger / more preferred TF binding
# Details: protein concentration: 100 nM; construct: GST-full length
# Procedure, shortened: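 Yeast transcription factors, full-length or as DNA-binding domains, were expressed with a GST tag using PURExpress in vitro transcription/translation. At about 100-200 nM they were applied to universal all-10-mer Agilent arrays, double-stranded by primer extension on fresh or once-stripped slides. Fluorescent anti-GST detected bound protein, and masliner normalised the scans. E-scores for ungapped eight-base words, pooled with reverse complements, came from the Universal PBM Analysis Suite.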
row,Sequence,PBM E-score
1,CGTACCCC,0.0787
2,AGGCTGTA,-0.0917
3,ACAAAGAT,0.0695
4,ACATTATC,0.078
5,CTAGGCAG,-0.159
6,AATTCCTA,0.0693
7,GAGTCACA,0.0275
8,ACACCGGT,-0.112
9,ACATGGAA,0.0641
10,CCACAACA,-0.135
11,CGACCAGC,0.023
12,GGTGCATA,-0.0478
13,CTGTAAGC,0.0454
14,CAAGATCG,-0.0622
15,CTGTGGAA,0.123
16,CACTGGGC,-0.198
17,GCTAATCC,0.0447
18,ATGTAATA,0.13
19,GCGGACCA,0.189
20,TTGAGAAA,0.113
21,CAAGAGCC,0.061
22,CTTGAACA,-0.018
23,AAGCCGGA,0.202
24,AACGTCGC,-0.0096
25,CAGGGGAC,-0.00647

# Reprinted at random: two entries already listed
row,Sequence,PBM E-score
24,AACGTCGC,-0.0096
21,CAAGAGCC,0.061

# (list continues)

row,Sequence,PBM E-score
1,CGATGGCG,0.017
2,AATCCGGT,0.0653
3,TATCTGCA,-0.0215
4,ACCTCCCG,-0.177
5,AAATTCTT,-0.0189
6,GGCTCCTA,-0.0856
7,TACAAGGA,-0.123
8,CTTCACCC,0.0793
9,ACGTGCAA,0.139
10,GTTACGAA,0.0759
11,GAAACCAC,0.0608
12,CAGCCCGC,-0.269
13,CAAACACG,0.087
14,GACTAGAC,-0.112
15,GCCGTTCC,-0.102
16,TGCGCTAA,0.0259
17,CAGCAAAG,0.018
18,TATCTTGA,-0.0394
19,ATTGGCAG,-0.164
20,ACGCTGCC,-0.169
21,GTCTCGAA,-0.0529
22,AGTCTCTC,-0.163
23,AAACAATA,0.261
24,CCTAAGCC,-0.283
25,CAAACCAG,-0.128

row,Sequence,PBM E-score
1,CCCGAACC,-0.0844
2,GGTAACAC,0.0111
3,GGTCCTGA,0.112
4,CAGTGGTC,-0.176
5,CCGGTGCG,-0.127
6,CAGTCACG,-0.186
7,CCTTATAC,0.0966
8,CCTGGTAG,0.0165
9,CACACGCA,-0.0633
10,CACACCGG,-0.0367
11,CTGCTGGC,-0.299
12,AAATATTT,0.106
13,ACCGTCCG,-0.238
14,CCACTCTA,0.128
15,GACACTCA,-0.152
16,AATTTTCA,0.0418
17,ACAGCTTG,-0.0272
18,CTGCCAGA,-0.123
19,ACTCCACT,-0.0926
20,TAATGCGA,0.072
21,CTTTCACC,-0.0112
22,AGTACACC,0.00106
23,CGCAGCTA,-0.0329
24,ATATACCG,0.204
25,GACGCAAA,0.113

# An excerpt of these results, bar-delimited:
row | Sequence | PBM E-score
5 | CCGGTGCG | -0.127
6 | CAGTCACG | -0.186
7 | CCTTATAC | 0.0966
8 | CCTGGTAG | 0.0165

# More results follow:

row,Sequence,PBM E-score
1,GCTGACTA,-0.101
2,ACTATGCA,0.17
3,TAGCTTAA,0.0129
4,GAAGCGCC,0.06
5,TAATATAA,0.302
6,AATGAGTG,0.203
7,ATGCGGTC,0.12
8,CTGATCGC,-0.0369
9,CCATGCGA,0.0611
10,CCCGCCCC,0.193
11,ATCACTAA,-0.0841
12,AAGAATCC,0.0617
13,CCTGCTAG,-0.214
14,AAGGATGC,-0.0428
15,AGGCATTC,-0.115
16,ACATCTCG,0.0593
17,GAGTACCA,0.142
18,TATCGTGA,0.0913
19,AAACACCT,-7e-05
20,AGTTCCAT,0.157
21,AGGTGTAC,-0.145
22,ACGCCCAC,-0.0361
23,GGACTACC,-0.229
24,AAGATGTG,0.0799
25,GGCGTCTA,-0.0534

row,Sequence,PBM E-score
1,TTAGACAA,0.00355
2,GGTTGTGA,0.0533
3,AAGAAAAA,-0.0197
4,ATGACCTG,-0.124
5,GCGCTGAA,-0.219
6,ATTACTGA,-0.0487
7,CCTCAATA,-0.0783
8,CTACTGAG,-0.00592
9,TCCAAAGA,-0.065
10,CGTTGCGA,-0.0989
11,ACGCACCG,-0.114
12,GATGGATA,-0.0483
13,ACCTTACT,0.0162
14,TAAGGCGA,-0.0249
15,AACAGAGT,0.0421
16,GTACGTAA,-0.169
17,AATGCGAA,-0.0243
18,GTTATAAC,-0.0643
19,ATAACTCG,0.1
20,CCCAAGAA,0.0831
21,AATCCAAT,0.174
22,GCCATAAA,-0.0219
23,GGTAAACC,-0.102
24,GTCACGCA,0.0867
25,CACCACTC,0.0931

row,Sequence,PBM E-score
1,ACTCACTC,0.0563
2,CAGCAAGC,-0.226
3,ACCACCGG,-0.144
4,AATTGAAC,-0.129
5,GAGCCCCA,-0.15
6,AGCGGCAA,0.00952
7,ACTATAGA,0.124
8,CCATACAG,-0.053
9,ACCCCTGG,0.0828
10,AATCCCTC,-0.0866
11,AGCGCGCA,0.205
12,CGAGCTTC,0.143
13,ATGTCTCG,0.016
14,AGAACCTA,-0.0297
15,CCATACTC,-0.0157
16,AAGTTGAA,0.0452
17,CATTTGCA,0.0564
18,ACCATCTA,-0.0677
19,GCCTATGA,-0.194
20,AGTTCAAG,0.182
21,AGATTCCT,-0.111
22,GCCTATAC,-0.229
23,CAGCGAGG,0.0395
24,AAACGATT,0.222
25,GCATCTGA,-0.169

# Look-ups from the entries so far.
# GGACTACC | PBM E-score: -0.229
# CTACTGAG | PBM E-score: -0.00592
# ATTGGCAG | PBM E-score: -0.164
# CCATGCGA | PBM E-score: 0.0611

# Further records

row,Sequence,PBM E-score
1,CAAGTAAG,-0.0208
2,ACGAACCA,0.235
3,CCATTTGC,-0.0555
4,CGGCAGAA,0.154
5,GGTCACGA,0.0402
6,TGGAACCA,0.0904
7,ATAACCGA,-0.0269
8,CAAGGTGA,0.119
9,ATATGTCA,0.0889
10,GCAGTGCC,-0.171
11,ATGCGTAC,0.0134
12,TCACAAGA,0.0581
13,CGCCGAAC,0.00296
14,GTTTGCGA,0.0803
15,CGCAGCCA,-0.162
16,AGTTGGGA,0.0703
17,ATAGCCAT,0.0469
18,GAGTGAGA,0.0435
19,ATAGCTCG,-0.0336
20,ACGACACA,0.0824
21,CTACCAGA,-0.0347
22,TGTAATAA,0.141
